Substitutions are numbered along the chain they refer to. Results are given in words; binding and its absence hold for the method and conditions named. Binding seen in cells or lysates may run through a third protein. Some results given as binding are weak or reduced against the parent protein; the word gives no strength. Where a sequence is shown, tags or fusion partners need not be part of it. Each block holds one molecule with its values, some of them ahead of it.
Tests used:
[1] = target: T1, ΔGAG-BG: human betaglycan with double Ser-Ala point mutation at S534 and S545 (no GAG chains) (human) (UniProt Q03167); experiment: cross-linking + co-IP; affinity binding of [125I]-TGF-β1 to BG FL and ∆GAG mutant expressing cells, immunoprecipitation with anti-BG antibody; receptors seen as labelled bands
T1 sequence: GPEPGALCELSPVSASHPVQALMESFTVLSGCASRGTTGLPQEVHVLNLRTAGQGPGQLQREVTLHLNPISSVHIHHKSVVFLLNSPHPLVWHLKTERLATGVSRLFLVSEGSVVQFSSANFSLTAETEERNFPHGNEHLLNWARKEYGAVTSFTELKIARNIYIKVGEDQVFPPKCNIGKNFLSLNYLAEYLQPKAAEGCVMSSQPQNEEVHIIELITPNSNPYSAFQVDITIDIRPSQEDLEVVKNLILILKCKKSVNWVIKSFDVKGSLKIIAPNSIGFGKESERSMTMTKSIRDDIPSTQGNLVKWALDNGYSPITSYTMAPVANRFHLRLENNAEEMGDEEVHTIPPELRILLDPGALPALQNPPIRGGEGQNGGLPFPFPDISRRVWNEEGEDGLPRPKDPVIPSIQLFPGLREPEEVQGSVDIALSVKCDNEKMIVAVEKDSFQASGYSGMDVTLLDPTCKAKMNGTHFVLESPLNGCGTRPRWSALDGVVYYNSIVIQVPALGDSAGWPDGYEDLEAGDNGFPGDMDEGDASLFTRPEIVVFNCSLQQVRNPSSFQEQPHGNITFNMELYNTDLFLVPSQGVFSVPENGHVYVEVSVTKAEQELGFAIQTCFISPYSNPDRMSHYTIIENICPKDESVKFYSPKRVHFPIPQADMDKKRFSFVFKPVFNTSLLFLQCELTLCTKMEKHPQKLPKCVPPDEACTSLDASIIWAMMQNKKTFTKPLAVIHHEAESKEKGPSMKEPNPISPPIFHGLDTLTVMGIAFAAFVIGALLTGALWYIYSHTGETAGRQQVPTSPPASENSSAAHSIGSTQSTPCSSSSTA

The chains behind the UniProt entries cited, without tags or fusion partners. Residues count along the entry.
UniProt P37173, residues 23-567: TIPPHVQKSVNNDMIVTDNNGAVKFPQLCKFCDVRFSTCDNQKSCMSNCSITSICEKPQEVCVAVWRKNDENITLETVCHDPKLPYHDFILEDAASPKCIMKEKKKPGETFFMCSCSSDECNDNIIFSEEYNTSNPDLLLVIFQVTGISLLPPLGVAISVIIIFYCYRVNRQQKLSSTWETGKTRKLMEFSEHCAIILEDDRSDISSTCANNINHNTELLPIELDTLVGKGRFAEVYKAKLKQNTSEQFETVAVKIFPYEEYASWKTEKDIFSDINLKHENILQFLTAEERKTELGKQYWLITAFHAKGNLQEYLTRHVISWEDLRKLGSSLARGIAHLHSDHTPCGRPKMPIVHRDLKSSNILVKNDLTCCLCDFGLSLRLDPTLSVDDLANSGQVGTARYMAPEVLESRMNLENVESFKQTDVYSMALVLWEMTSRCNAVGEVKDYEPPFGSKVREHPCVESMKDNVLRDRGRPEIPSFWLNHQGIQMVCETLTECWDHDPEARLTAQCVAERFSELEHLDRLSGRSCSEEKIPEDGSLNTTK
UniProt P01137, residues 279-390: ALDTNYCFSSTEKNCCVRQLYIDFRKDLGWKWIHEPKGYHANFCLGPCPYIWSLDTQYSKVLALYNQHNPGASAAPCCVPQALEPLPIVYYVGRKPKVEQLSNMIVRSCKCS

[2] = target: T2, Ascites-derived soluble betaglycan of ovarian cancer patients (human (endogenous in patient ascites fluid)) (UniProt Q03167); experiment: radioligand binding + cross-linking; patient ascites fluid, [125I]-TGF-β1 binding and crosslinking, immunoprecipitation with anti-BG antibody, autoradiography; only the binder purified
T2 sequence (chain, HS and CS glycosaminoglycan chains): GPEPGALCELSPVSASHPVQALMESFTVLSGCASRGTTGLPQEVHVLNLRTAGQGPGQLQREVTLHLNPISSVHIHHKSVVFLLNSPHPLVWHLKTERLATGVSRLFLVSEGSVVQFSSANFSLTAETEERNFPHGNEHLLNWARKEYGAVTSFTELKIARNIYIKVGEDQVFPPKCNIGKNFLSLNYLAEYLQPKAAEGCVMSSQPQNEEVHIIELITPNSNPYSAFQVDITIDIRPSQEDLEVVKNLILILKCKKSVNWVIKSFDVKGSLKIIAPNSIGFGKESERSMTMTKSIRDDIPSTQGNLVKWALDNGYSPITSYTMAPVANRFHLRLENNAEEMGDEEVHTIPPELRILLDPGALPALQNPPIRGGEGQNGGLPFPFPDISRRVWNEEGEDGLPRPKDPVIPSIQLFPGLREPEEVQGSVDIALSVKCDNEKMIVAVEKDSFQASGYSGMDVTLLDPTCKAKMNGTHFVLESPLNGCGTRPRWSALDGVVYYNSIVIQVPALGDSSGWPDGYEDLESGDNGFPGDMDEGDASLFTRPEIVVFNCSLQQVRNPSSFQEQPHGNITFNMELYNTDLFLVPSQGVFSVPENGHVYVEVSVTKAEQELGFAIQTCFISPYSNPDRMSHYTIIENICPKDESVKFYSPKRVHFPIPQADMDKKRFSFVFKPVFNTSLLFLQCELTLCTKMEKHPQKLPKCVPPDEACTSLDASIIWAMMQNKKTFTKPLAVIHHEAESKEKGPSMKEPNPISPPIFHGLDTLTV

[3] = target: T3, Shed-BG from FL-BG expressing cells (soluble betaglycan ectodomain, GAG modified) (human) (UniProt Q03167); experiment: radioligand binding + cross-linking; conditioned media directly labeled with 200 pM [125I]-TGF-β1, washing steps omitted, crosslinking, immunoprecipitation with anti-BG antibody, autoradiography; only the binder purified
T3 sequence (chain, glycosaminoglycan chains (forms ranging from 90 to 250 kDa)): T2 sequence (chain, HS and CS glycosaminoglycan chains)

[4] = target: T4, Shed-BG from ΔGAG-BG expressing cells (soluble betaglycan ectodomain without GAG chains) (human) (UniProt Q03167); experiment: as above
T4 sequence: T2 sequence (chain, HS and CS glycosaminoglycan chains) with S514A, S525A

[5] = target: T5, S545A (HS-BG): human betaglycan single GAG attachment site mutant (human) (UniProt Q03167); experiment: radioligand binding + cross-linking; 100 pM [125I]-TGF-β1 bound and crosslinked to cell surface receptors in a cold room, HEPES-KRH buffer pH 7.4; total cell lysates or immunoprecipitation with anti-BG antibody, SDS-PAGE, autoradiography; only the binder purified
T5 sequence (chain, heparan sulfate glycosaminoglycan chains (lost after heparinase III digestion)): T1 sequence with A514S

[6] = target: T1, ΔGAG-BG: human betaglycan with double Ser-Ala point mutation at S534 and S545 (no GAG chains) (human); experiment: as above

binding [1]: binds
Molecule: TGF-βRII (type II TGF-β receptor) (from UniProt P37173 23-567)

binding [2]: binds | binding [3]: binds | binding [4]: binds | binding [5]: binds | binding [6]: binds
Molecule: [125I]-Bolton-Hunter labeled Transforming Growth Factor-β1 (Human, Recombinant) (from UniProt P01137 279-390) (ligand)

binding [1]: binds
B1: TGF-βRI (type-I TGF-β receptor) (receptor, UniProt P36897 34-503)
chain: LQCFCHLCTKDNFTCVTDGLCFVSVTETTDKVIHNSMCIAEIDLIPRDRPFVCAPSSKTGSVTTTYCCNQDHCNKIELPTTVKSSPGLGPVELAAVIAGPVCFVCISLMLMVYICHNRTVIHHRVPNEEDPSLDRPFISEGTTLKDLIYDMTTSGSGSGLPLLVQRTIARTIVLQESIGKGRFGEVWRGKWRGEEVAVKIFSSREERSWFREAEIYQTVMLRHENILGFIAADNKDNGTWTQLWLVSDYHEHGSLFDYLNRYTVTVEGMIKLALSTASGLAHLHMEIVGTQGKPAIAHRDLKSKNILVKKNGTCCIADLGLAVRHDSATDTIDIAPNHRVGTKRYMAPEVLDDSINMKHFESFKRADIYAMGLVFWEIARRCSIGGIHEDYQLPYYDLVPSDPSVEEMRKVVCEQKLRPNIPNRWQSCEALRVMAKIMRECWYANGAARLTALRIKKTLSQLSQQEGIKM
